Among the data in PMC7826247 are binding values, retold here.

No constants are given. Whether binding was seen depends on the method and setting. In cells and extracts the contact can be indirect. A result given as binding can be weak or reduced; the word gives no strength. Tags and fused reporters may be left off the sequences shown.

Experiment [1] concerns the target Gcr1^S-TAP (S. cerevisiae). The experiment can be described thus: co-IP; in vivo TAP pull-down: 800 ug of yeast lysate protein (50 mM Tris-HCl pH 7.5, 150 mM NaCl, 2 mM MgCl2, 0.1% NP40) on IgG Sepharose for 1 h, three washes; Gcr2-5Flag detected by anti-Flag immunoblot, Gcr1-TAP by IgG.
In experiment [2] the target is Gcr1^U-TAP (S. cerevisiae). The description is as above.

B1: Gcr2-5Flag (protein, UniProt Q01722 1-534)
chain: MHHQTKLDVFIIRAYNLLSNESVISGASLQSVTNSPQTTTNTPSGMVNGAVGTGIANPTGLMGSDSTPNIDEIITSTGSNALTKTNSDSANGTPNGNSSSTSAISNASNPATTGNNASSSATSNGIYTQAQYSQLFAKISKLYNATLSSGSIDDRSTSPKSAIELYQRFQQMIKELELSFDASPYAKYFRRLDGRLWQIKTDSELENDELWRLVSMSIFTVFDPQTGQILTQGRRKGNSLNTSTKGSPSDLQGINNGNNNGNNGNIGNGSNIKNYGNKNMPNNRTKKRGTRVAKNAKNGKNNKNSNKERNGITDTSAFSNTTISNPGTNMLFDPSLSQQLQKRLQTLSQDVNSRSLTGYYTQPTSPGSGGFEFGLSHADLNPNASSNTMGYNTMSNNGSHSWKRRSLGSLDVNTLDDEAVEELLQLTNTSKRQRPMTTAAEGALINDGPDTNLNANNTQMKVDLNPSNSMGPIDTEAVIRPLKEAYDAIISEKGQRIVQLERELELQRQETQWLRKMLIEDMGCVRSMLRDLQR
As for B1, the binding entry in experiment [1] and in experiment [2] was “binds” throughout.
